Experimental data reported in PMC5651264.
These are yes or no findings as the source states them, for the method shown. For some assays here: Binding seen in cells or lysates may run through a third protein.

The chains behind the UniProt entries cited, without tags or fusion partners. Where a name states a change or a piece, a line headed by the entry shows the natural chain unless it says otherwise.
UniProt Q9S7R5: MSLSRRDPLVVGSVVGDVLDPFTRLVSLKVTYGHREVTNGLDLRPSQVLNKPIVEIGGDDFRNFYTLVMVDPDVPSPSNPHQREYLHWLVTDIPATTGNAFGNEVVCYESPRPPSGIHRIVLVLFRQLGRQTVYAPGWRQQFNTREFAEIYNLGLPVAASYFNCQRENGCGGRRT
UniProt Q9FLH8: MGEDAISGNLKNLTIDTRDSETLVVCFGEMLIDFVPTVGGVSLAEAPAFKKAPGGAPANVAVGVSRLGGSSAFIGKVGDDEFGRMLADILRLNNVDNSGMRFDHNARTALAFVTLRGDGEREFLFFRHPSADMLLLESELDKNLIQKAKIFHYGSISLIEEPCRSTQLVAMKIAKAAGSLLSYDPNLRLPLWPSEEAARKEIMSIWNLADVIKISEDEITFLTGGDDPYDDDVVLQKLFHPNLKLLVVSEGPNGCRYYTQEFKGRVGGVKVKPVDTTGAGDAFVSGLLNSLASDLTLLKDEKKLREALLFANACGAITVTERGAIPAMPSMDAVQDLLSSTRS

Legend:
[1] = target: GST-tagged TWIN SISTER OF FT (GST-TSF) (Arabidopsis thaliana) (UniProt Q9S7R5); experiment: pull-down; GST only or GST-TSF immobilised on glutathione-Sepharose 4B beads, incubated with purified FRK6-His or FRK7-His for 1 h at 4°C; four washes with GST lysis buffer (50 mM Tris-HCl pH 7.5, 0.1 M NaCl, 0.05% Tween-20, 1 mM EDTA); anti-His and anti-GST immunoblot; both purified
[2] = target: TSF fused with the N-terminal fragment of YFP (TSF-NYFP) (Arabidopsis thaliana) (UniProt Q9S7R5); experiment: split reporter; BiFC with N- and C-terminal YFP fragments (pUC-SPYNE, pUC-SPYCE) co-transfected into Arabidopsis leaf protoplasts, 12 h, confocal microscopy

Row | Substance | binding [1] | binding [2]
1 | His-tagged FRUCTOKINASE7 (FRK7-His) (from UniProt Q9FLH8) (enzyme) | no binding | 
2 | FRK7 fused with the C-terminal fragment of YFP (FRK7-CYFP) (from UniProt Q9FLH8) (enzyme) |  | no binding
